Laboratory results: publication PMC6176987, “Correction of cognitive deficits in mouse models of Down syndrome by a pharmacological inhibitor of DYRK1A” (Disease Models & Mechanisms, 2018)

Test system: Tg(Dyrk1a) mice brain phosphoproteins
Experiment: Brain phosphoproteomic analysis, Tg(Dyrk1a) mice
Assay type: in vivo, mouse
Settings: 20 mg/kg daily i.p. 19 days
Source text: All tissue samples were processed for phosphoproteomics analysis based on the enrichment and separation of proteotypic phosphopeptides with HILIC (see Materials and Methods). In Tg(Dyrk1a) and Ts65Dn mice, the hippocampus, cortex and cerebellum yielded 1384, 1523 and 2004 peptides, respectively, corresponding to 886, 948 and 1229 proteins (Table 1; Tables S1-S13).
Only biological processes common to the three brain regions and both models are presented (complete biological processes are listed in Tables S11-S13).
DYRK1A substrates and their respective phosphorylation sites were identified in the phosphoproteome based on the DYRK1A phosphorylation consensus sequence R-P-x(1,3)-S/T-P ([Himpel et al., 2000]). Protein-protein interactions of each substrate were generated with STRING web server application. Biological process enrichments of each cluster were assessed by using ToppCluster web server application. Phospho-network was mapped with the Cytoscape tool. See Supplementary Materials and Methods for details. […]
emitters (FS360-20- 10-D-20 -C7, New Objective, Woburn, MA, USA). Gaseous phase transition of the peptides was performed with positive ion electrospray ionization applying a voltage of 2.5 kV. […]
Protein Identification and Quantification. […]
Precursor Mass Tolerance 10 ppm, Fragment Mass Tolerance 20 mmu, Dynamic Modifications were Oxidation of M (+15.995 Da), Deamidation of N, Q (+0.984 Da), Phosphorylation of S (+79.966 Da) and Static Modifications were iTRAQ8plex at any N-Terminus, K, Y (+304.205 Da) and Methylthio at C (+45.988 Da). […] The Reporter Ion Quantifier node included a custom iTRAQ 8plex (Thermo Scientific Instruments) Quantification Method, integration window tolerance of 10 ppm with Most Confident Centroid. […] Only uniquely occurring peptides were used for protein relative quantification and peptides with missing iTRAQ […]
Phosphoproteomics analysis results. A total of about 70 tryptic peptide fractions were analyzed from each brain region. […]

Compound: O=C1NC(Nc2ccccc2)=N/C1=C\c1ccc2c(c1)OCO2 [L41]
- Modulated proteins trisomic, L41 vs vehicle (Cerebellum): 344
- Modulated proteins trisomic, L41 vs vehicle (Cortex): 240
- Modulated proteins trisomic, L41 vs vehicle (Hippocampus): 267
